# Measured values: PubChem BioAssay AID624291 (National Center for Advancing Translational Sciences (NCATS), 2012)
# Among all 350,000 compounds or so, about 220 (0.063%) were called active. The shares of active, inactive and inconclusive entries below differ from those in the screen. Calls follow the shape of the dose curve; as a rule, active = well fitted activation curve with a large enough effect; inconclusive = small, poorly fitted or top-dose-only effect; inactive = no such curve, though single readings can be large or run the other way. Potencies of inconclusive entries are doubtful fits and often do not repeat.
# Experiment: qHTS for Activators of Integrin-Mediated Alleviation for Muscular Dystrophy; also: nearly all actives have a fitted effect of over 60% in size
# Settings: alpha7betagal myoblasts, beta-gal FDG fluorescence, 48 h; series mostly up to 38.3 µM
# Procedure, shortened: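 alpha7betagal+/- myoblasts (passage 13, 250/well) treated 48 h at 37C with compounds at 1:260 dilution of DMSO stock. Lysed, then beta-galactosidase activity read as FDG fluorescence (ex 480/em 540) after 30 min, with pre-read for autofluorescence.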
# Potency is read from the fitted curve at half-maximal effect.
row,SMILES,Potency
1,O=C(Nc1c2c(nn1-c1ccccc1)CS(=O)C2)c1ccc2c(c1)OCO2 (configuration not stated),"inconclusive: 10 µM [activator, partial curve, poor fit]"
2,O=C(Nc1nc(-c2ccc(Cl)cc2Cl)cs1)C1CCCO1 (configuration not stated),inactive
3,Fc1ccccc1Nc1nc2ccccc2o1,"inconclusive: 3.16 µM [activator, partial curve, poor fit]"
4,CN=c1sc2ccccc2n1CC(O)c1ccccc1 (configuration not stated),"inconclusive: 1.78 µM [activator, partial curve, poor fit]"
5,Cc1ccc2c(c1)CO[C@@]21O[C@H](CCO)C[C@H](O)[C@H]1O,inactive
6,FCCCOc1ccc(/C=N/OCc2c(Cl)cccc2Cl)cc1,inactive
7,FC(F)(F)c1cnc(N/N=C/c2ccncc2)c(Cl)c1,"inconclusive: 0.501 µM [activator, full curve, poor fit]"
8,Cc1cc(-c2nc3ncccc3o2)ccc1NC(=O)c1ccc([N+](=O)[O-])o1,inactive
9,CSC1=NC2(CCCCC2)C2=C(CCCC2)N1,"inconclusive: 8.91 µM [activator, partial curve]"
10,Cc1c(C(=O)NCC2COc3ccccc3O2)oc2ccc(S(=O)(=O)N(C)C3CCCCC3)cc12 (configuration not stated),"inconclusive: 17.8 µM [activator, partial curve, poor fit]"
11,C/C(=N\NC(=O)C(O)c1ccccc1)c1ccc(Cl)s1 (configuration not stated),"inconclusive: 0.708 µM [activator, single point]"
12,FC(F)(F)c1ccc(-c2n[nH]c(=S)o2)nc1,"inconclusive: 3.55 µM [activator, single point]"
13,C[C@@H]1CN([C@@H](C)CO)C(=O)c2cc(-c3ccccc3F)cnc2O[C@H]1CN(C)Cc1cccc(F)c1,inactive
14,CCn1c(CSc2n[nH]c(N)n2)nc2cc(C(=O)O)ccc21,inactive
15,CCn1c(SCc2nc3ccccc3c(=O)[nH]2)nnc1-c1ccncc1,inactive
16,N#C/C(=C\c1ccccc1)C(=O)N(c1ccccn1)C1CCCCC1,inactive
17,COc1ccc(C(O)P(=O)(OCCC(C)C)c2ccc(N(C)C)cc2)cc1 (configuration not stated),"inconclusive: 5.01 µM [activator, partial curve]"
18,CCn1c(=O)cc(SCC(=O)N2CCN(c3ccccn3)CC2)c2ccccc21,"inconclusive: 1.41 µM [activator, full curve]"
19,CC(=O)Nc1ccc(NC(=O)CSc2nnc(C)n2-c2ccccc2)cc1,"inconclusive: 3.16 µM [activator, partial curve, poor fit]"
20,NC(=O)NNC1=Nc2cccc3cccc1c23,"inconclusive: 28.2 µM [activator, single point]"
21,Cc1ccc(S(=O)(=O)N2CCN(CC(=O)N/N=C\c3ccncc3)CC2)cc1,"inconclusive: 7.94 µM [activator, partial curve, poor fit]"
22,CCOc1ccc(S(=O)(=O)Nc2ccc(S(=O)(=O)N3CCCCC3)cc2)cc1,"inconclusive: 11.2 µM [activator, partial curve, poor fit]"
23,COc1cccc(C(=O)CN2C(=O)C(C)(C)Oc3ccc(C(=O)N4CCOCC4)cc32)c1,"inconclusive: 2.24 µM [activator, single point]"

# As entered above.
# Potency, CCn1c(=O)cc(SCC(=O)N2CCN(c3ccccn3)CC2)c2ccccc21 is entered as inconclusive: 1.41 µM [activator, full curve]
# Potency, Cc1ccc2c(c1)CO[C@@]21O[C@H](CCO)C[C@H](O)[C@H]1O is entered as inactive
# Potency, Fc1ccccc1Nc1nc2ccccc2o1 is entered as inconclusive: 3.16 µM [activator, partial curve, poor fit]
# Potency, Cc1c(C(=O)NCC2COc3ccccc3O2)oc2ccc(S(=O)(=O)N(C)C3CCCCC3)cc12 (configuration not stated) is entered as inconclusive: 17.8 µM [activator, partial curve, poor fit]
# Potency, COc1cccc(C(=O)CN2C(=O)C(C)(C)Oc3ccc(C(=O)N4CCOCC4)cc32)c1 is entered as inconclusive: 2.24 µM [activator, single point]
# Potency, FCCCOc1ccc(/C=N/OCc2c(Cl)cccc2Cl)cc1 is entered as inactive

# Additional results:

row,SMILES,Potency
1,C/C=C/c1ccc(OCCOCCOc2cccc3cccnc23)c(OC)c1,"inconclusive: 14.1 µM [activator, single point]"
2,CCC(C)(C)n1nnnc1C(c1ccccc1)N1CCN(Cc2ccccc2)CC1 (configuration not stated),"inconclusive: 5.01 µM [activator, single point]"
3,CC(=O)Nc1ccc(NC(=O)/C=C/c2cccc(C(F)(F)F)c2)cc1,inactive
4,CC(=O)N1CCc2c(sc(NC(=O)c3ccc([N+](=O)[O-])o3)c2C#N)C1,inactive
5,COCCNC(=O)CN(C(=O)Cn1nnc2ccccc21)c1cccc(C)c1C,"inconclusive: 3.55 µM [activator, single point]"
6,COc1ccnc2c1c(=O)n(Cc1cccc(Cl)c1)c(=O)n2C,"inconclusive: 5.01 µM [activator, single point]"
7,Cn1c(=S)[nH]c2c(c1=O)C(C)(C)Cc1ccccc1-2,inactive
8,O=C1CC(Cc2ccc(Br)cc2)C(=O)N1c1ccccc1 (configuration not stated),"inconclusive: 4.47 µM [activator, single point]"
9,CSc1ncnc2[nH]ccc12,"inconclusive: 28.2 µM [activator, single point]"
10,O=C(Cc1cccs1)NCc1ccccc1Br,inactive
11,COc1ccc(S(=O)(=O)Nc2ccc(-c3ccc4nnc(C)n4n3)cc2)c(OC)c1,"inconclusive: 2.24 µM [activator, full curve, poor fit]"
12,CCOC(=O)c1cc(CC)sc1NC(=O)c1cc(OCC)c(OCC)c(OCC)c1,"inconclusive: 10 µM [activator, partial curve, poor fit]"
13,CCOC(=O)c1cccc(NC(=O)c2ccc3c(c2)C(=O)N(CC2CCCO2)C3=O)c1 (configuration not stated),"inconclusive: 2.82 µM [activator, partial curve, poor fit]"
14,C/C(=N\NC(=O)c1cc2ccccc2cc1O)c1cccs1,"inconclusive: 0.501 µM [activator, full curve, poor fit]"
15,Cc1cc(=O)[nH]c(NN)n1,"inconclusive: 28.2 µM [activator, single point]"
16,Cc1ccc(S(=O)(=O)N(CC(=O)NCc2cccnc2)c2ccc(F)cc2)cc1,"inconclusive: 2.82 µM [activator, single point]"
17,O=C(Nc1ccccc1C(=O)N/N=C/c1ccco1)c1ccc(Cl)cc1,inactive
18,Cc1nnc(NC(=O)C2CCCN2S(=O)(=O)c2ccc(Cl)cc2)s1 (configuration not stated),"inconclusive: 3.16 µM [activator, full curve, poor fit]"
19,COc1cccc(/C=N/NC(=O)CNC(=O)c2cccs2)c1O,inactive
20,O=C(Nc1cc(Cl)cc(Cl)c1)Nc1cnccn1,"inconclusive: 12.6 µM [activator, partial curve, poor fit]"
21,CCNC(=S)N(CCc1c(C)[nH]c2ccc(C)cc12)Cc1cccnc1,"inconclusive: 2.51 µM [activator, single point]"
22,COc1ccc(-n2c(SCC(=O)Nc3cc(C(=O)O)ccc3C)nc3ccccc3c2=O)cc1Cl,"inconclusive: 3.16 µM [activator, single point]"
23,CN(C(=O)CS(=O)(=O)c1cn(CC(=O)N2CCOCC2)c2ccccc12)c1ccccc1,"inconclusive: 2.24 µM [activator, partial curve, poor fit]"

row,SMILES,Potency
1,COc1ccc(Cl)cc1NC(=O)c1nnn(CC(=O)Nc2ccc3c(c2)OCO3)c1N,"inconclusive: 3.16 µM [activator, single point]"
2,COc1cc2c(cc1OC)C(c1ccccc1)N(C(=O)CSCC(=O)O)CC2 (configuration not stated),"inconclusive: 20 µM [activator, single point]"
3,CN(Cc1ccccc1)S(=O)(=O)c1cn(C)cn1,"inconclusive: 11.2 µM [activator, single point]"
4,COc1ccc(C)cc1NC(=O)Nc1ccncc1,"inconclusive: 28.2 µM [activator, single point]"
5,CCOC(=O)/C(=N/Nc1ccccc1OC)N1CCCc2ccccc21,"inconclusive: 4.47 µM [activator, partial curve, poor fit]"
6,CCCS(=O)(=O)Nc1c(OC)ccc2c1c(C(=O)OCC)c(C)n2C,"inconclusive: 12.6 µM [activator, single point]"
7,Cc1cc(OCC(=O)N(C)Cc2ccccc2)ccc1Br,"inconclusive: 2.82 µM [activator, partial curve, poor fit]"
8,COc1ccc(/C=N/N2CCN(c3ccccc3)CC2)cc1Br,inactive
9,Cc1cccnc1CCNC(=O)CC1C(=O)NCCN1CC1CCCCC1 (configuration not stated),"inconclusive: 10 µM [activator, partial curve, poor fit]"
10,CCOc1ccc2cc(C3CC(c4ccco4)=NN3S(=O)(=O)c3ccccc3)c(Cl)nc2c1 (configuration not stated),"inconclusive: 22.4 µM [activator, partial curve, poor fit]"
11,COc1ccc(-c2cc(C)no2)cc1S(=O)(=O)Nc1cccc(C)c1,"inconclusive: 2 µM [activator, full curve]"
12,Cc1[nH]c(=S)c(C#N)c(-c2ccccc2)c1C(=O)Nc1ccccc1,"inconclusive: 10 µM [activator, partial curve, poor fit]"
13,COc1ccc(N2CCN(C(=O)CCCNC(=O)Cn3cnc4sc(C)c(C)c4c3=O)CC2)cc1,"inconclusive: 0.501 µM [activator, full curve, poor fit]"
14,COc1ccc(O)c(-c2[nH]ncc2C(=O)c2ccccc2)c1,inactive
15,Cc1csc2nc(O)c(C(=O)NCc3ccc4c(c3)OCO4)c(=O)n12,"inconclusive: 5.01 µM [activator, single point]"
16,Cc1cc(C)n2nc(SCC(=O)c3cc(C)n(-c4cc(C)on4)c3C)nc2n1,inactive
17,COc1ccc(CCNC(=O)Cn2c(=O)n(-c3ccc(F)cc3F)c(=O)c3sccc32)cc1OC,inactive
18,CCC1Sc2ccc(S(=O)(=O)CCC(=O)NC3CCCCCC3)cc2NC1=O (configuration not stated),"inconclusive: 2 µM [activator, partial curve, poor fit]"
19,Oc1cccc(Oc2ncc(C(F)(F)F)cc2Cl)c1,"inconclusive: 5.01 µM [activator, single point]"
20,O=C(NCc1nnc2c(C(F)(F)F)cc(Cl)cn12)c1ccc2c(c1)OCO2,"inconclusive: 3.98 µM [activator, single point]"
21,O=C(NCC1OCCCN1S(=O)(=O)c1cc(F)ccc1F)C(=O)NC1CCCCCC1 (configuration not stated),"inconclusive: 31.6 µM [activator, single point]"
